Measurements reported in patent US6514942B1, “Methods and compositions for stimulating T-lymphocytes” (The Board of Regents, The University of Texas System, priority 1995, dated 2003).
“Also recorded” adds a separate entry of the source. Part of at least one peptide drawing is inferred or uncertain, most often the ends. Some entries share one result that the patent states for a list of compounds. Ends that are not written are not given here.

Legend:
C1R:A2 cells = experiment: In vitro induction of peptide-reactive CTL from PBMC, 51Cr release on peptide-pulsed C1R:A2; assay type: cell-based, human
PBMC = experiment: Surface phenotype of T-cells from PBMC cultures stimulated with HER-2 peptide; assay type: cell-based, human; conditions: for CD4+ cells in culture: 10-15 days after a third stimulation with the same peptide
Procedure: FIG. 7A. Surface phenotype of T-cells from PBMC cultures stimulated with HER-2 peptide D97. Fresh isolated PBMC from healthy volunteers were induced in vitro with HER-2 peptides. T-cell surface phenotypes were determined after one (1) and two (2) stimulations with the same peptide. Immunofluorescence analysis was performed as described in the Materials and methods. Symbols indicate (o—o) CD3^+ cells, (▪—▪) CD8^+ cells, and (□—□) CD4^+ cells.
(§1) mAbs to CD3 (OKT3-FITC), CD4 (OKT4-FITC) and CD8 (OKT8-FITC) were obtained from Ortho Diagnostic (Ortho, Raritan, N.J.), mAb W6/32 (anti-HLA, -A, -B, -C) from Dako (Dako-Dakopatts, Denmark); HLA-A2 reacting mAb BB7.2 and MA2.1 from ATCC. Immunofluorescence studies were performed as described in Example 1.
To address the question of whether in vitro stimulation of PBMC with HER-2 peptides followed by culture in the presence of IL-2 leads to T-cell phenotype change, the % CD3, CD4, and CD8 expression on the surface of HER-2 peptide-stimulated PBMC were determined. The results of a typical study are shown in FIG. 7A, FIG. 7B and FIG. 7C. […] This trend continued in all cultures and 10-15 days after a third stimulation, with the same peptide in all cultures, CD4^+ cells constituted the dominant (>80%) cell population.

HLA-A2+ PBMC = experiment: Proliferation assay (3H-thymidine incorporation, stimulation index); assay type: cell-based, human; conditions: Donor 20; peptide 50 μg/ml, 5 days
Procedure: Fresh PBMC from healthy volunteers isolated by Ficoll-Hypaque™ were distributed into 96-well round-bottomed plates (Falcon, Becton-Dickinson) at 2×10^5/well in RPMI-FCS. Peptides were added at 50 μg/ml. The studies were performed at least twice using PBMC from the same donor, in quadruplicate. After 5 days, for the last 16 h in culture, wells were pulsed with 1 μCi of [^3H]-thymidine (^3H-Tdr) and counted. Proliferation was determined as ^3H-Tdr incorporation and c.p.m. determined in the samples of PBMC cultured with peptides and were divided by c.p.m. determined same cultures in the absence of peptides, to determine the stimulation index (S.I.).
HER-2 peptides (Table 6) were tested for their ability to stimulate HLA-A2^+ PBMC to proliferate in vitro. PBMC from healthy donors were incubated with HER-2 peptides from the groups:41-56, 392-410 and 968-984 for 5 days. With few exceptions, significant cell proliferation was not observed in all 4 PBMC samples from individual donors of different HLA-types including HLA-A2. […] The exception to these observations was Donor 20.S.I. for D95 was 6.4, for D121 was 4.3, but for the nonamer D119 was only 1.1. Similarly, the S.I. for the longer peptide D96 (41-54) was 2.8 but for the shorter peptide D97 was only 1.5. These differences were statistically significant.

HLA-A2 of T2 cells = target: T1, HLA-A2 of T2 cells (Homo sapiens, UniProt P04439, D140Y/D185E/D98H/E176V/E277Q/G131W/G231S/I119V/I121R/I166T/I218V/L300P/L318F/N151K/N90K/P208A/P217A/Q86G/Q94H/R138H/R169H/T345S); experiment: Reactivity of MA2.1 mAb with T2 cells after culture with peptide (immunofluorescence, FL1); assay type: cell-based; conditions: peptide 50 μg/ml, overnight culture in IMDM-FCS
T1 construct: cell surface expression of HLA-A2 is lower (30-40%) than in normal LBL lines transfected with HLA-A2; endogenous in cells; host or cells: T2 (transport deletion mutant) human lymphoblastoid cells, obtained from Dr. Peter Creswell
Procedure: FIG. 5A. Effects of HER-2 peptides on reactivity of MA2.1 mAb with T2 cells. Fluorescence analysis and determination of FL1 were performed as described (Stauss et al., 1992). Peptides were added to T2 cells at 50 μg/ml (final concentration). After overnight culture, in IMDM-FCS, cells were washed and the levels of HLA-A2 expression were determined using HLA-A2 specific mAb.
as §1
To determine whether these peptides and longer analogs affect HLA-A2 conformation as an indication of HLA-A2 binding, the effects of HER-2 peptides on the reactivity of conformationally dependent mAb MA2.1 and BB.7.2 were examined with HLA-A2 of T2 cells. The human cell line T2 has a defect affecting endogenous peptide loading of MHC class I molecules. As a consequence, cell surface expression of HLA-A2 is lower (30-40%) than in normal LBL lines transfected with HLA-A2 (e.g., C1R) but the reactivity of MA2.1 and BB.7.2 mAb is increased when certain HLA-A2 binding peptides are added to the culture medium (Anderson et al., 1993). […]

Compound	Ag specificity of CTL response induced by the peptide (C1R:A2 cells; PBMC stimulated with the peptide)	CD4+ cells in culture (PBMC)	change in CD8+ cells (PBMC; nine days after first stimulation, expansion in IL-2)	donors in which induced CTLs preferentially recognize the peptide used as stimulator (C1R:A2 cells)	lysis of peptide-pulsed targets by PBMC stimulated with the peptide (C1R:A2 cells; donor 20)	lysis of peptide-pulsed targets by PBMC stimulated with the peptide (C1R:A2 cells; donor 30)	stimulation index (S.I.) (HLA-A2+ PBMC)	FL1 of T2 cells stained with MA2.1 mAb (HLA-A2 of T2 cells)
CC(C)C[C@H](NC(=O)[C@@H](N)Cc1c[nH]cn1)C(=O)N[C@@H](Cc1ccc(O)cc1)C(=O)N[C@@H](CCC(N)=O)C(=O)NCC(=O)N[C@@H](CS)C(=O)N[C@@H](CCC(N)=O)C(=O)N[C@H](C(=O)N[C@H](C(=O)O)C(C)C)C(C)C [Peptide D113]	lacked Ag specificity; also recorded: failed to induce a sustained Ag specific CTL response	–	–	–	–	–	–	–
ELVSEFSRM [Peptide C85, natural nonapeptide HER-2:971-979]	–	> 80%	–	–	–	–	–	–
HLDMLRHLYQ [Peptide D97]	–	> 80%	significant increase in CD8^+ cells	2/3	somewhat higher lysis of targets pulsed with the peptides used for stimulation	higher lysis of targets pulsed with D97 than with the overlapping 48-56 and control D119 nonapeptides	1.5	slight increase in FL1
LQPEQLQVFETLEEITGYLY [Peptide D121, HER-2:392-411, 20-mer]	–	> 80%	–	–	–	–	–	–
THLDMLRHLYQGCQ [Peptide D96]	–	–	–	2/3	higher lysis of targets pulsed with D97 than D96	–	2.8	slight increase in FL1
